The target in assay [1] is T1, Utp21p-GFP (S. cerevisiae) (UniProt Q06078).
T1 sequence: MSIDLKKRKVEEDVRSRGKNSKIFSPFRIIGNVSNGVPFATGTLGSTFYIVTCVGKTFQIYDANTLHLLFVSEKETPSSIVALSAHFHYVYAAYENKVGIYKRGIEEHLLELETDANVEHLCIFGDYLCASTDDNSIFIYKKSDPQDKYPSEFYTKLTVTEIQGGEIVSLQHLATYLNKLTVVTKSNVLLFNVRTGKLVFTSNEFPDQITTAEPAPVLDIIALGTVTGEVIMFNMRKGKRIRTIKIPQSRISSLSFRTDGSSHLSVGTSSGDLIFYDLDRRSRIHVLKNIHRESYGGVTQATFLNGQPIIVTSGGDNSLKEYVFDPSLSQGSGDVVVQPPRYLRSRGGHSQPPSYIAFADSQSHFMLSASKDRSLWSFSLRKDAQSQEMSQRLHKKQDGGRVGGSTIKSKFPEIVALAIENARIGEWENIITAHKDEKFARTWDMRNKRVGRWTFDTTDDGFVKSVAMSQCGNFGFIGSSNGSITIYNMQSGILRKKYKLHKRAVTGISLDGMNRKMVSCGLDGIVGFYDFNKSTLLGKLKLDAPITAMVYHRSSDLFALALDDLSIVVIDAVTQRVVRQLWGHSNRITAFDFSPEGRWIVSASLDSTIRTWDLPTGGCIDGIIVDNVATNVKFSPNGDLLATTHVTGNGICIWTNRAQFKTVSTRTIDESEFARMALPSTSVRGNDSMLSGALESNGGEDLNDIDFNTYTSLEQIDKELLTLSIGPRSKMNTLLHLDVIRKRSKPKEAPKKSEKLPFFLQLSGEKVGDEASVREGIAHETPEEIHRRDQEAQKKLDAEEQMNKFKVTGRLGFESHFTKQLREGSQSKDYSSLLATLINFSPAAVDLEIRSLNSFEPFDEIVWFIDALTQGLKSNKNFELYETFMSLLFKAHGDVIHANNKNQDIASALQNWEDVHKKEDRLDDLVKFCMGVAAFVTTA
The assay is described as follows: co-IP; Utp21p-GFP purified on GFP-TRAP-M magnetic beads (Chromotek) from yeast lysate, buffer PM; western blot; 14 h in glucose medium to deplete genomic Pwp2p, plasmid-borne PWP2 alleles. (In general: Immunoblotting shows a protein as a band on a membrane.)

In assay [2] the target is T2, Utp21p-TAP (S. cerevisiae) (UniProt Q06078).
T2 sequence: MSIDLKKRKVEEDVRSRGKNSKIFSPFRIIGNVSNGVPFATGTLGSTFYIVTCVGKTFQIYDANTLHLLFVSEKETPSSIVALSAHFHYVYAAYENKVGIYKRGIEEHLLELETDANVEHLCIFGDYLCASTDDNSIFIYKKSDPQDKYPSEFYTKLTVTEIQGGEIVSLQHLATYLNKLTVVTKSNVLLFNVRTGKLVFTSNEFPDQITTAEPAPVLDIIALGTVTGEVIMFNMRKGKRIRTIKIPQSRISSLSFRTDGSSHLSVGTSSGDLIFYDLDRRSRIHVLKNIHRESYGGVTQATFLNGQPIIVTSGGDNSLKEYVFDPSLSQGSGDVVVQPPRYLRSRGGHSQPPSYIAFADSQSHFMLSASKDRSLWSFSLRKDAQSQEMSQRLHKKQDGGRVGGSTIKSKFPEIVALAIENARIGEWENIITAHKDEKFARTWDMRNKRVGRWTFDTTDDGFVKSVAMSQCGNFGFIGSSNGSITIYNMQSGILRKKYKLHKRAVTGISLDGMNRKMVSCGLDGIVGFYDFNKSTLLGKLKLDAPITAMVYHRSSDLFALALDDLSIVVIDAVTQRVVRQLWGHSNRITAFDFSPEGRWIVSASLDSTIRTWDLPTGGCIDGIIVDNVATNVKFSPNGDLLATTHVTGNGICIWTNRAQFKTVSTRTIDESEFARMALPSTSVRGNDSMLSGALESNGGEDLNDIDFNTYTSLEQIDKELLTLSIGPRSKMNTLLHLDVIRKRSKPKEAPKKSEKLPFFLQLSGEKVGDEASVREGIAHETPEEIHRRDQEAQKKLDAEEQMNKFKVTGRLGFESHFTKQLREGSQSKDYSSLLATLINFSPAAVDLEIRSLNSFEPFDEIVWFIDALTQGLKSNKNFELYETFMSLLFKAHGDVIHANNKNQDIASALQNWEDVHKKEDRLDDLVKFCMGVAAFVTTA
Briefly: co-IP; Utp21p-TAP purified on IgG-coupled magnetic beads from yeast lysate, buffer PM (150 mM KOAc, 20 mM Tris-HCl pH 8.0, 5 mM MgCl2, 1 mM DTT, 0.2% Triton); eluate analysed by western blot; genomic GAL::HA-PWP2 shut off in glucose (8 h, 18 h or 14 h) with a plasmid-borne PWP2 allele or empty plasmid.

No constants are given. Whether binding was seen depends on the method and setting. Binding seen in cells or lysates may run through a third protein. Some entries that bind do so weakly or less than the wild type. Where a sequence is shown, tags or fusion partners need not be part of it.

B1: Pwp2p-ΔC206 (aa 1–717) (domain or fragment, UniProt P25635 1-717)
chain: MKSDFKFSNLLGTVYRQGNITFSDDGKQLLSPVGNRVSVFDLINNKSFTFEYEHRKNIAAIDLNKQGTLLISIDEDGRAILVNFKARNVLHHFNFKEKCSAVKFSPDGRLFALASGRFLQIWKTPDVNKDRQFAPFVRHRVHAGHFQDITSLTWSQDSRFILTTSKDLSAKIWSVDSEEKNLAATTFNGHRDYVMGAFFSHDQEKIYTVSKDGAVFVWEFTKRPSDDDDNESEDDDKQEEVDISKYSWRITKKHFFYANQAKVKCVTFHPATRLLAVGFTSGEFRLYDLPDFTLIQQLSMGQNPVNTVSVNQTGEWLAFGSSKLGQLLVYEWQSESYILKQQGHFDSTNSLAYSPDGSRVVTASEDGKIKVWDITSGFCLATFEEHTSSVTAVQFAKRGQVMFSSSLDGTVRAWDLIRYRNFRTFTGTERIQFNCLAVDPSGEVVCAGSLDNFDIHVWSVQTGQLLDALSGHEGPVSCLSFSQENSVLASASWDKTIRIWSIFGRSQQVEPIEVYSDVLALSMRPDGKEVAVSTLKGQISIFNIEDAKQVGNIDCRKDIISGRFNQDRFTAKNSERSKFFTTIHYSFDGMAIVAGGNNNSICLYDVPNEVLLKRFIVSRNMALNGTLEFLNSKKMTEAGSLDLIDDAGENSDLEDRIDNSLPGSQRGGDLSTRKMRPEVRVTSVQFSPTANAFAAASTEGLLIYSTNDTILFDPFDL
Regarding B1, the binding result in assay [1] and in assay [2] was “binds” each time.

B2: Pwp2p (wild type, plasmid-encoded, untagged) (protein, UniProt P25635 1-923)
chain: MKSDFKFSNLLGTVYRQGNITFSDDGKQLLSPVGNRVSVFDLINNKSFTFEYEHRKNIAAIDLNKQGTLLISIDEDGRAILVNFKARNVLHHFNFKEKCSAVKFSPDGRLFALASGRFLQIWKTPDVNKDRQFAPFVRHRVHAGHFQDITSLTWSQDSRFILTTSKDLSAKIWSVDSEEKNLAATTFNGHRDYVMGAFFSHDQEKIYTVSKDGAVFVWEFTKRPSDDDDNESEDDDKQEEVDISKYSWRITKKHFFYANQAKVKCVTFHPATRLLAVGFTSGEFRLYDLPDFTLIQQLSMGQNPVNTVSVNQTGEWLAFGSSKLGQLLVYEWQSESYILKQQGHFDSTNSLAYSPDGSRVVTASEDGKIKVWDITSGFCLATFEEHTSSVTAVQFAKRGQVMFSSSLDGTVRAWDLIRYRNFRTFTGTERIQFNCLAVDPSGEVVCAGSLDNFDIHVWSVQTGQLLDALSGHEGPVSCLSFSQENSVLASASWDKTIRIWSIFGRSQQVEPIEVYSDVLALSMRPDGKEVAVSTLKGQISIFNIEDAKQVGNIDCRKDIISGRFNQDRFTAKNSERSKFFTTIHYSFDGMAIVAGGNNNSICLYDVPNEVLLKRFIVSRNMALNGTLEFLNSKKMTEAGSLDLIDDAGENSDLEDRIDNSLPGSQRGGDLSTRKMRPEVRVTSVQFSPTANAFAAASTEGLLIYSTNDTILFDPFDLDVDVTPHSTVEALREKQFLNALVMAFRLNEEYLINKVYEAIPIKEIPLVASNIPAIYLPRILKFIGDFAIESQHIEFNLIWIKALLSASGGYINEHKYLFSTAMRSIQRFIVRVAKEVVNTTTDNKYTYRFLVSTDGSMEDGAADDDEVLLKDDADEDNEENEENDVVMESDDEEGWIGFNGKDNKLPLSNENDSSDEEENEKELP
For B2, the binding result in assay [2] is on record as “binds”.

B3: Pwp2p-ΔC32 (domain or fragment, UniProt P25635 1-891)
chain: MKSDFKFSNLLGTVYRQGNITFSDDGKQLLSPVGNRVSVFDLINNKSFTFEYEHRKNIAAIDLNKQGTLLISIDEDGRAILVNFKARNVLHHFNFKEKCSAVKFSPDGRLFALASGRFLQIWKTPDVNKDRQFAPFVRHRVHAGHFQDITSLTWSQDSRFILTTSKDLSAKIWSVDSEEKNLAATTFNGHRDYVMGAFFSHDQEKIYTVSKDGAVFVWEFTKRPSDDDDNESEDDDKQEEVDISKYSWRITKKHFFYANQAKVKCVTFHPATRLLAVGFTSGEFRLYDLPDFTLIQQLSMGQNPVNTVSVNQTGEWLAFGSSKLGQLLVYEWQSESYILKQQGHFDSTNSLAYSPDGSRVVTASEDGKIKVWDITSGFCLATFEEHTSSVTAVQFAKRGQVMFSSSLDGTVRAWDLIRYRNFRTFTGTERIQFNCLAVDPSGEVVCAGSLDNFDIHVWSVQTGQLLDALSGHEGPVSCLSFSQENSVLASASWDKTIRIWSIFGRSQQVEPIEVYSDVLALSMRPDGKEVAVSTLKGQISIFNIEDAKQVGNIDCRKDIISGRFNQDRFTAKNSERSKFFTTIHYSFDGMAIVAGGNNNSICLYDVPNEVLLKRFIVSRNMALNGTLEFLNSKKMTEAGSLDLIDDAGENSDLEDRIDNSLPGSQRGGDLSTRKMRPEVRVTSVQFSPTANAFAAASTEGLLIYSTNDTILFDPFDLDVDVTPHSTVEALREKQFLNALVMAFRLNEEYLINKVYEAIPIKEIPLVASNIPAIYLPRILKFIGDFAIESQHIEFNLIWIKALLSASGGYINEHKYLFSTAMRSIQRFIVRVAKEVVNTTTDNKYTYRFLVSTDGSMEDGAADDDEVLLKDDADEDNEENEENDVVMESDDE
In the case of B3, the binding result in assay [2] was “binds”.

B4: Pwp2p-ΔC66 (domain or fragment, UniProt P25635 1-857)
chain: MKSDFKFSNLLGTVYRQGNITFSDDGKQLLSPVGNRVSVFDLINNKSFTFEYEHRKNIAAIDLNKQGTLLISIDEDGRAILVNFKARNVLHHFNFKEKCSAVKFSPDGRLFALASGRFLQIWKTPDVNKDRQFAPFVRHRVHAGHFQDITSLTWSQDSRFILTTSKDLSAKIWSVDSEEKNLAATTFNGHRDYVMGAFFSHDQEKIYTVSKDGAVFVWEFTKRPSDDDDNESEDDDKQEEVDISKYSWRITKKHFFYANQAKVKCVTFHPATRLLAVGFTSGEFRLYDLPDFTLIQQLSMGQNPVNTVSVNQTGEWLAFGSSKLGQLLVYEWQSESYILKQQGHFDSTNSLAYSPDGSRVVTASEDGKIKVWDITSGFCLATFEEHTSSVTAVQFAKRGQVMFSSSLDGTVRAWDLIRYRNFRTFTGTERIQFNCLAVDPSGEVVCAGSLDNFDIHVWSVQTGQLLDALSGHEGPVSCLSFSQENSVLASASWDKTIRIWSIFGRSQQVEPIEVYSDVLALSMRPDGKEVAVSTLKGQISIFNIEDAKQVGNIDCRKDIISGRFNQDRFTAKNSERSKFFTTIHYSFDGMAIVAGGNNNSICLYDVPNEVLLKRFIVSRNMALNGTLEFLNSKKMTEAGSLDLIDDAGENSDLEDRIDNSLPGSQRGGDLSTRKMRPEVRVTSVQFSPTANAFAAASTEGLLIYSTNDTILFDPFDLDVDVTPHSTVEALREKQFLNALVMAFRLNEEYLINKVYEAIPIKEIPLVASNIPAIYLPRILKFIGDFAIESQHIEFNLIWIKALLSASGGYINEHKYLFSTAMRSIQRFIVRVAKEVVNTTTDNKYTYRFLVSTDGSME
For B4, in assay [2], the binding result is reported as “binds”.

B5: Utp18p (protein, UniProt P40362 1-594)
chain: MTMATTAMNVSVPPPDEEEQLLAKFVFGDTTDLQENLAKFNADFIFNEQEMDVEDQEDEGSESDNSEEDEAQNGELDHVNNDQLFFVDDGGNEDSQDKNEDTMDVDDEDDSSSDDYSEDSEEAAWIDSDDEKIKVPILVTNKTKKLRTSYNESKINGVHYINRLRSQFEKIYPRPKWVDDESDSELDDEEDDEEEGSNNVINGDINALTKILSTTYNYKDTLSNSKLLPPKKLDIVRLKDANASHPSHSAIQSLSFHPSKPLLLTGGYDKTLRIYHIDGKTNHLVTSLHLVGSPIQTCTFYTSLSNQNQQNIFTAGRRRYMHSWDLSLENLTHSQTAKIEKFSRLYGHESTQRSFENFKVAHLQNSQTNSVHGIVLLQGNNGWINILHSTSGLWLMGCKIEGVITDFCIDYQPISRGKFRTILIAVNAYGEVWEFDLNKNGHVIRRWKDQGGVGITKIQVGGGTTTTCPALQISKIKQNRWLAVGSESGFVNLYDRNNAMTSSTPTPVAALDQLTTTISNLQFSPDGQILCMASRAVKDALRLVHLPSCSVFSNWPTSGTPLGKVTSVAFSPSGGLLAVGNEQGKVRLWKLNHY
B5: the binding entry in assay [1] and in assay [2] was “binds” in each case.

The record behind these values is PMC5466602.
